Results on 1 substance are retold here after article PMC5421898.

Protein sequences, listed by entry. Tags and fused reporters are not part of them. Lines headed by an entry give the natural chain unless they say otherwise; changes in a name come on top. Residues count along the entry.
UniProt P19022, residues 26-906: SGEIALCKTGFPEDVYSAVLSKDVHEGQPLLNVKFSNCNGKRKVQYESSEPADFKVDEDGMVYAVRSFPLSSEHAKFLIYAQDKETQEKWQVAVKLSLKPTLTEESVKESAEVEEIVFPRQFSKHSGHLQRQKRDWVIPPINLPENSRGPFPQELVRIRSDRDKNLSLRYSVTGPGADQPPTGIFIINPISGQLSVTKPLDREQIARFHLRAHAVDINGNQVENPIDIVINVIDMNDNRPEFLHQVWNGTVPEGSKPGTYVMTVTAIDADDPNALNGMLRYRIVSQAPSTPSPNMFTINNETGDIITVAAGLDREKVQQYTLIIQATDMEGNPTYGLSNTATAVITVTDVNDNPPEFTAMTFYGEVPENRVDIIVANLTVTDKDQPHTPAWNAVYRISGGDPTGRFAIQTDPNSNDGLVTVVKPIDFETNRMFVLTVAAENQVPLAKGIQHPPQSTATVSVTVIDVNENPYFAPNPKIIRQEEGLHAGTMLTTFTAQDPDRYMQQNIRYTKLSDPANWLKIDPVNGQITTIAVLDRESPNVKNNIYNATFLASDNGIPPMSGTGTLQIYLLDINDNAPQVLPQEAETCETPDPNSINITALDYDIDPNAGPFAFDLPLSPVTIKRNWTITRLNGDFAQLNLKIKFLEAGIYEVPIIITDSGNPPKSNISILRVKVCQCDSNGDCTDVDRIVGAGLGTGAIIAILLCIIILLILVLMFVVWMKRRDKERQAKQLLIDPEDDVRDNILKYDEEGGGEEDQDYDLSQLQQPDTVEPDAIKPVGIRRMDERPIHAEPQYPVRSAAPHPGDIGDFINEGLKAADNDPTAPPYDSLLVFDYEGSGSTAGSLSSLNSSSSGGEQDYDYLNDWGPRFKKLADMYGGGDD
UniProt P39905: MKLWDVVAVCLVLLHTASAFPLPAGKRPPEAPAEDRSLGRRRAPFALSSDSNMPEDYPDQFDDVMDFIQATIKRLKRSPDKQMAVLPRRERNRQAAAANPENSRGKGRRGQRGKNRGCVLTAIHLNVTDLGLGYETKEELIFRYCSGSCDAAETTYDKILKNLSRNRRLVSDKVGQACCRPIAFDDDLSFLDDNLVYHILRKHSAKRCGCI

Results are given in words; binding and its absence hold for the method and conditions named. Binding seen in cells or lysates may run through a third protein. Binding can be weak; no strength is given.

Assay [1] concerns the target precursor N-cadherin (proN-cadherin) (human (endogenous in U251)) (UniProt P19022). Put plainly: co-IP; U251 cells (untransfected or pro-CDH2 transfected) treated with 50 ng/ml exogenous GDNF for 30 min, then cell membrane protein extract, 2 ug first antibody, protein A+G agarose, western blot; the precipitating antibody is not told; only the binder purified. (In general: In western blotting, separated proteins are transferred to a membrane and probed.)

For assay [2], the target named is precursor N-cadherin (proN-cadherin), over-expressed from the vector EF1A-proCDH2-IRES-EGFP (human) (UniProt P19022). Described as above.

For “exogenous glial cell line-derived neurotrophic factor (GDNF) (from UniProt P39905) (ligand)”, the binding result in assay [1] and in assay [2] was “binds” in each case.
